Values quoted from earlier work in patent US20080305054A1, “Use of Glycosylated Flavanones for the Browning of Skin or Hair” (SYMRISE GMBH & CO. KG, priority 2004, published 2008).
For at least one compound, name, drawing or mass did not settle the structure.

Test system: B16 cells
Details: cited from earlier work

C[C@@H]1O[C@@H](OC[C@H]2O[C@@H](Oc3c(-c4ccc(O)c(O)c4)oc4cc(O)cc(O)c4c3=O)[C@H](O)[C@@H](O)[C@@H]2O)[C@H](O)[C@H](O)[C@H]1O [rutin, quercetin 3-β-D-rutinoside]
effect on melanin formation: inhibits melanin formation
